Results published in patent publication US11541028B2 (Mederis Diabetes LLC, priority 2018, dated 2023).

Assay: general procedure: Fmoc solid-phase peptide synthesis; Fmoc-Thr(tBu)-HMPA resin; HBTU:DIEA (1:2); DIC/HOBt for side-chain acylation and lactam
Settings: whole synthesis, analytical HPLC / mass spectrometry, scale of the general procedure 2 mmole

Boc-His(Trt)-Aib-Gln(Trt)-Gly-Thr(tBu)-Phe-Thr(tBu)-Ser(tBu)-Asp(OtBu)-Tyr(tBu)-Ser(tBu)-Lys(Boc)-Tyr(tBu)-Leu-Asp(OtBu)-Glu(O-Allyl)-Gln(Trt)-Ala-Ala-Lys(Alloc)-Glu(O-tBu)-Phe-Ile-Lys(Dde)-Trp(Boc)-Leu-Leu- Gln(Trt)-Thr(tBu)-HMPA
final HPLC purity: 98.7%
